From article PMC9943673
No constants are given. Whether binding was seen depends on the method and setting. In cells and extracts the contact can be indirect. Some binding calls cover weakened binding; strength is not graded here. Sequences can lack the tags named with a protein.

What was measured:
Assay in all cases: co-IP; HEK293 transfected with EGFP-PPM1D constructs; extracts with bensonase on GFP trap; immunoblot of endogenous proteins
[1] = target: T1, EGFP-PPM1D (full length, wild type) (human) (UniProt O15297)
T1 sequence: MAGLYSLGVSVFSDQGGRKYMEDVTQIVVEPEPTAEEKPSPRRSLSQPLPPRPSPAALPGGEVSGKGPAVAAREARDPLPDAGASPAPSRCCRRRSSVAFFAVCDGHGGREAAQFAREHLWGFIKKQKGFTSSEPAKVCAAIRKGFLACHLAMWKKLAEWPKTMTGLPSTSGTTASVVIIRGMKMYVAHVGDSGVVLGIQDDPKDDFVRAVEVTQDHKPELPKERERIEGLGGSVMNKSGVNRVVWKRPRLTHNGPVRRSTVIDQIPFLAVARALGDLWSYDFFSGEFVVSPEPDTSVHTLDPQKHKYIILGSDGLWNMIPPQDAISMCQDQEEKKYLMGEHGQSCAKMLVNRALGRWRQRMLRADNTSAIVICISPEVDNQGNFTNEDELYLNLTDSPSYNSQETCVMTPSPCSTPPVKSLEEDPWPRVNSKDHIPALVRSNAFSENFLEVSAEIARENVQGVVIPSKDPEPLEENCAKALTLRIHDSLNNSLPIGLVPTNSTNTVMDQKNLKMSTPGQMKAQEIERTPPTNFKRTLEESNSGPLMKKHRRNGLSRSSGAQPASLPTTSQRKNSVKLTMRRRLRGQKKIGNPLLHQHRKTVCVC

[2] = target: T2, EGFP-PPM1D-CT (unstructured C-terminal region of PPM1D) (human) (UniProt O15297)
T2 sequence: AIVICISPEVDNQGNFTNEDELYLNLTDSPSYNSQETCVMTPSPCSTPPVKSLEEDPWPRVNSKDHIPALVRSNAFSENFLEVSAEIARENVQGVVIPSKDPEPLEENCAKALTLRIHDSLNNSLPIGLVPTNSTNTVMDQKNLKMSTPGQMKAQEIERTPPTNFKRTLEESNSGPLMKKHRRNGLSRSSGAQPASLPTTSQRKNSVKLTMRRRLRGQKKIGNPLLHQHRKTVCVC

[3] = target: T3, EGFP-PPM1D-A380 (catalytic domain of PPM1D) (human) (UniProt O15297)
T3 sequence: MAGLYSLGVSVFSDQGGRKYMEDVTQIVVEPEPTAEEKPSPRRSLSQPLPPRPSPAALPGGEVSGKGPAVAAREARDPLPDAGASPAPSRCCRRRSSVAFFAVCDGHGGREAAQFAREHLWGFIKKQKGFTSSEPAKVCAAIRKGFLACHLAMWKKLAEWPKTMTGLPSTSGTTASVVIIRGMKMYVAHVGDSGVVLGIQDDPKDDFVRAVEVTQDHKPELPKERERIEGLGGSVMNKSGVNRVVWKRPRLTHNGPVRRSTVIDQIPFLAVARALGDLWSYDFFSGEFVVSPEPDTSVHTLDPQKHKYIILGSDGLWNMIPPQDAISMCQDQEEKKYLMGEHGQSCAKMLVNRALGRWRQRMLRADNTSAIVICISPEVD

Substance: telomeric repeat-binding factor 2 (TRF2), endogenous in HEK293 (from UniProt Q15554-3 1-542)
- binding [1]: binds
- binding [2]: no binding
- binding [3]: binds
